# Source: PubChem BioAssay AID743255 (National Center for Advancing Translational Sciences (NCATS), 2014)
# Protein sequences, listed by entry. Tags and fused reporters are not part of them. Lines headed by an entry give the natural chain unless they say otherwise; changes in a name come on top.
# UniProt O94782: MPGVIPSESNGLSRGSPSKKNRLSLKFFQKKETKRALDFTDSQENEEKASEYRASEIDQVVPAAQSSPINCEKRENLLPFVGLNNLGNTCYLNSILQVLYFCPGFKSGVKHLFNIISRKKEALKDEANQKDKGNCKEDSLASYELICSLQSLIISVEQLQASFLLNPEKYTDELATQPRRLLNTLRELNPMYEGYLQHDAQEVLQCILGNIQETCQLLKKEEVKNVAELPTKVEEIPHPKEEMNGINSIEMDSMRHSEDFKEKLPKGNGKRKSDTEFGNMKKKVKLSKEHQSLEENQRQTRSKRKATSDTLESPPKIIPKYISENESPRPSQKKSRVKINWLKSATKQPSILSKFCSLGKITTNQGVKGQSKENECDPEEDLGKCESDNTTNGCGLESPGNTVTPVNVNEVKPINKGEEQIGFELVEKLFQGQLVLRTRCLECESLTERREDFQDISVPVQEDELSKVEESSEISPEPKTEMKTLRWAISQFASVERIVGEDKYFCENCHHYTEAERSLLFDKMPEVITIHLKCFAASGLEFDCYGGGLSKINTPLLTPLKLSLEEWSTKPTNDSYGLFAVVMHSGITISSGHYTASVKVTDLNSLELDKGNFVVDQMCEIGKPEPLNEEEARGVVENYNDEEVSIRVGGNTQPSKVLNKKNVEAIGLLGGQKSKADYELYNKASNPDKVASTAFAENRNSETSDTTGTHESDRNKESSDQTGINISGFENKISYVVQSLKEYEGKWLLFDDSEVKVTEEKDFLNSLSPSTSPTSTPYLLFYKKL
# Hit rate of the full screen: of about 390,000 compounds, about 910 (0.23%) were called active. The shares of active, inactive and inconclusive entries below differ from those in the screen. Calls come from the whole dose curve; as a rule, active = well fitted inhibition curve with a large enough effect; inconclusive = small, poorly fitted or top-dose-only effect; inactive = no such curve, though single readings can be large or run the other way. Potencies beside an inconclusive call are fits to weak or partial responses and may not hold up.
# Target: Ubiquitin carboxyl-terminal hydrolase 1 (Homo sapiens) (UniProt O94782)
# Assay: Inhibitors of USP1/UAF1: Primary Screen; note: nearly all actives have a fitted effect of over 60% in size
# Settings: recombinant USP1/UAF1, Ub-Rhodamine cleavage fluorescence; activity change, negative = inhibition: at 57.1 µM (top of the series)
# How it was run: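 1 nM enzyme complex + cpd, 15 min RT; start with Ub-Rho 150nM final; kinetic fluorescence ex 480/em 540, 6 reads q60 s. Buffer 50mM HEPES pH 7.8, 0.5mM EDTA, 0.1 mg/ml BSA, 1mM TCEP, 0.01% Tween-20.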
# % is set by controls: 0 for no effect and ±100 for the full control effect; potency is the fitted concentration of half-maximal effect.
Compound,Potency,"activity change, negative = inhibition"
CCC(=O)N1CC2(CC(c3cccc(NC(=O)CC(c4ccccc4)c4ccccc4)c3)=NO2)C[C@H]1C(N)=O (some centres undefined),"inconclusive: 56.2 µM [inhibitor, single point]",–
CC(NC(=O)CSc1nc(-c2cccc(Cl)c2)nc2cc(=O)[nH]n12)c1nc2ccccc2n1C (centres undefined),–,inactive: -21.1%
CC(C)N1CC(C(=O)O)CC1=O (centres undefined),"inconclusive: 0.282 µM [inhibitor, full curve]",–
O=C(COc1ccccc1F)Nc1ccc2nc(SCC(=O)N3CCCC3)sc2c1,–,inactive: -13.5%
COc1cc(NC(=O)Cn2cnc3sc(C)c(S(=O)(=O)N4CCC(C)CC4)c3c2=O)cc(OC)c1OC,–,inactive: -9.44%
CCSc1nnc(NC(=O)c2cc3c(s2)CCCC3)s1,–,inactive: -2.47%
C[C@H](NC(=O)c1nc[nH]c1C(=O)NCCCCCNC(=O)OC(C)(C)C)C(=O)OCc1ccccc1,"inconclusive: 11.2 µM [inhibitor, partial curve]",–
CC(=O)Nc1ccc(S(=O)(=O)Nc2cccc(-c3ccc(N4CCCCCC4)nn3)c2)cc1,"inconclusive: 5.01 µM [inhibitor, full curve]",–
CCOC(=O)c1c(C)n(C)c2cc(Br)c(O)c(O)c12,–,inactive: -27.3%
CCOc1ccc(Nc2oc(-c3cccs3)nc2C#N)cc1,"inconclusive: 25.1 µM [inhibitor, partial curve]",–
CC(C)(C)c1cc(-c2csc(Nc3ccccc3)[n+]2Cc2ccc(C(=O)O)cc2)cc(C(C)(C)C)c1O,"inconclusive: 31.6 µM [inhibitor, partial curve]",–
CC(C)Nc1nc(NC(C)C)nc(SCC(N)=O)n1,"inconclusive: 10 µM [inhibitor, single point]",–
CCC(C)Sc1cccc(-c2nc3ccc(C)cn3c2NC2CCCCC2)c1 (centres undefined),"inconclusive: 44.7 µM [inhibitor, partial curve, poor fit]",–
Cc1cc(C)c(C(=O)COC(=O)c2cc([N+](=O)[O-])ccc2N2CCOCC2)cc1C,–,inactive: -3.45%
COc1ccc(N(CC(=O)NCCSc2ccccc2)S(=O)(=O)c2ccccc2)c(OC)c1,"inconclusive: 5.01 µM [inhibitor, full curve, poor fit]",–
Cc1cc(O)c2c(C)c(CC(=O)N3CCCCC3)c(=O)oc2c1,"inconclusive: 6.31 µM [inhibitor, full curve, poor fit]",–
CC1CCN(S(=O)(=O)c2ccc(NC(=O)CN3CCCCCC3)cc2)CC1,–,inactive: -8.51%
O=C(NCc1ccc(F)cc1)c1ccc2c(c1)nc1n2CCCCC1,–,inactive: -5.76%
O=C(c1cc(-c2ccccn2)nc2ccc(Br)cc12)N1CCN(S(=O)(=O)c2ccccc2)CC1,"inconclusive: 8.91 µM [inhibitor, partial curve]",–
COc1ccc(N2CCN(c3nccs3)CC2)cc1,"inconclusive: 44.7 µM [inhibitor, single point]",–
Cc1cccc(N2CCN(c3ccc(NC(=O)c4ccccc4)cc3C(=O)O)CC2C)c1 (centres undefined),"inconclusive: 6.31 µM [inhibitor, single point]",–
CCC1CCCCN1C(=O)COC(=O)c1cncc(Br)c1 (centres undefined),"inconclusive: 0.251 µM [inhibitor, full curve, poor fit]",–

Compound,Potency,"activity change, negative = inhibition"
CC(C)=CCC/C(C)=C/CNC(=O)C[C@H]1C[C@H](C(=O)N2CCOCC2)[C@@]2(CCC3CCCC3)c3[nH]c4cc(CCC(=O)N(C)C)ccc4c3CCN2C1=O,"inconclusive: 126 µM [inhibitor, partial curve, poor fit]",–
COc1ccc(C(CCN2CCN(c3ccccc3)CC2)c2c(O)cc(OC)cc2OC)cc1 (centres undefined),"inconclusive: 2.82 µM [inhibitor, full curve]",–
Cc1ccc(S(=O)(=O)NCC(Nc2cccc(Cl)c2)c2ccccc2)cc1 (centres undefined),"inconclusive: 44.7 µM [inhibitor, partial curve, poor fit]",–
COc1cc(OC)c([N+](=O)[O-])cc1/C=N/NC(=O)c1ccncc1,"inconclusive: 35.5 µM [inhibitor, partial curve, poor fit]",–
O=S(=O)(c1ccc2nc(Nc3cccc(F)c3)ccc2c1)N1CCCC1,–,inactive: -21.9%
CCn1cc(C(=O)N2CCN(c3ccc(OC)cc3)CC2)c2cc(OC)c(OC)cc2c1=O,"inconclusive: 0.398 µM [inhibitor, full curve, poor fit]",–
CCC(C)NC(=O)Cn1c(=O)n(-c2ccc(C)c(C)c2)c(=O)c2c(C)c(C(=O)N(CC)CC)sc21 (centres undefined),–,inactive: -3.26%
O=C1/C(=C/c2ccco2)SC(=S)N1CCC(=O)N1CCCCC1CCO (centres undefined),"inconclusive: 50.1 µM [inhibitor, partial curve, poor fit]",–
Cc1cc2nc(N(Cc3cccnc3)C(=O)c3ccc(Cl)s3)sc2cc1C,"inconclusive: 0.112 µM [inhibitor, full curve, poor fit]",–
Cc1cc(C)cc(NC(=S)NCCSc2ccc(Cl)cc2)c1,–,inactive: -15.5%
COc1ccc(CC(=O)Nc2cc(S(=O)(=O)N3CCOCC3)ccc2N2CCOCC2)cc1,"inconclusive: 0.282 µM [inhibitor, full curve, poor fit]",–
CCC1CCCCN1CCCNC(=O)c1sc2nc(C)cc(C)c2c1-n1cccc1 (centres undefined),"inconclusive: 0.178 µM [inhibitor, full curve]",–
CC(=O)C1=C(C)N=c2s/c(=C/c3ccc4c(c3)OCO4)c(=O)n2C1c1ccc(N(C)C)cc1 (centres undefined),–,inactive: -15%
CCNc1nc(NC(C)C)nc(OCCOC(=O)Nc2ccccc2)n1,"inconclusive: 70.8 µM [inhibitor, partial curve, poor fit]",–
CCc1cc2c(cc3c(=O)n(CC(=O)NC(C)C)nc(CC)n32)s1,–,inactive: 0.117%
CNC(=O)c1ccc(-c2sc3nc(N4CCOCC4)c4c(c3c2N)CC(C)(C)OC4)o1,–,inactive: -9.7%
CC1=C/C(=C(\c2cc(C)c(O)c(Br)c2)c2ccccc2S(=O)(=O)O)C=C(Br)C1=O,"inconclusive: 14.1 µM [inhibitor, partial curve]",–
COc1cccc(C2=NOC(C(=O)N3CCc4ccccc4C3)C2)c1 (centres undefined),"inconclusive: 28.2 µM [inhibitor, partial curve, poor fit]",–
COc1ccc(/C=C/C(=O)NC(=S)NCc2ccccc2)cc1OC,"inconclusive: 20 µM [inhibitor, partial curve, poor fit]",–
Cc1ccc(-c2csc(NCCn3c(C)nc4cc(C(F)(F)F)ccc43)n2)cc1,"inconclusive: 5.01 µM [inhibitor, partial curve]",–
COC(=O)C1=C(C)N(Cc2ccco2)C(=O)/C1=C\c1ccc(N(C)C)cc1,–,inactive: -5.64%
Cc1ccc(S(=O)(=O)Nc2ccc3c(c2)CCCN3C(=O)c2cccs2)cc1C,"inconclusive: 4.47 µM [inhibitor, partial curve]",–

# Reformatted with tabs: 2 of the compounds above.
Compound	Potency	activity change, negative = inhibition
Cc1cccc(N2CCN(c3ccc(NC(=O)c4ccccc4)cc3C(=O)O)CC2C)c1 (centres undefined)	inconclusive: 6.31 µM [inhibitor, single point]	–
CCC1CCCCN1C(=O)COC(=O)c1cncc(Br)c1 (centres undefined)	inconclusive: 0.251 µM [inhibitor, full curve, poor fit]	–

# (further entries)

Compound,Potency,"activity change, negative = inhibition"
Cc1cccc(C)c1NS(=O)(=O)c1ccc(-c2cnc(C3CC3)o2)cc1,"inconclusive: 15.8 µM [inhibitor, partial curve, poor fit]",–
Cc1ccc(CNC(=O)C2CCC(=O)N(Cc3ccc(Cl)cc3)C2)cc1F (centres undefined),–,inactive: 3.58%
Cc1ccc(-c2nc3ccccc3nc2NN)cc1,"inconclusive: 28.2 µM [inhibitor, partial curve]",–
CCC(C)CCN1C(Nc2ccccc2)=NC[C@@H]1Cc1ccccc1 (some centres undefined),"inconclusive: 5.62 µM [inhibitor, partial curve, poor fit]",–
O=[N+]([O-])c1ccc(Nc2ccccc2)c2nonc12,"inconclusive: 35.5 µM [inhibitor, partial curve]",–
COc1ccc(-c2nc(CSc3nnc(C)n4c3cc3sccc34)c(C)o2)cc1,–,inactive: -1.33%
CC1=CCC2C(=O)N(c3cccc(C(=O)Nc4ccc(Cl)cc4)c3)C(=O)C2C1 (centres undefined),"inconclusive: 12.6 µM [inhibitor, partial curve]",–
O=C1c2ccccc2C(=O)N1N=Cc1ccc2c(c1)OCO2,–,inactive: -9.79%
S=C(Nc1ccccc1)NC1CCN(Cc2ccccc2)CC1,–,inactive: -15.7%
C=CCn1c(=O)/c(=C/c2ccc(O)cc2)s/c1=C(/C#N)c1nnc2n1CCCCC2,"inconclusive: 79.4 µM [inhibitor, partial curve, poor fit]",–
NC(=O)c1ccc2c(=O)n3c(-c4cccs4)csc3nc2c1,"inconclusive: 0.0794 µM [inhibitor, full curve, poor fit]",–
COc1ccc(C(=O)c2c(C(F)(F)F)oc3c2C(=O)c2ccccc2C3=O)cc1OC,–,inconclusive: -27.1% [inhibitor]
O=c1cc(-c2cccc(F)c2)[nH]c2ccccc12,"inconclusive: 0.251 µM [inhibitor, full curve, poor fit]",–
CN[C@H](C)C(=O)NC[C@H]1O[C@@H](n2ccc(N)nc2=O)[C@H](O)[C@@H]1O,"inconclusive: 0.251 µM [inhibitor, full curve, poor fit]",–
COc1ccc(CNC(=O)c2cc3c(=O)[nH]c4ccccc4c3n2C)c(OC)c1,"inconclusive: 22.4 µM [inhibitor, partial curve]",–
Cc1ccc2c(c1)N(C(=O)N1CCC(C(=O)NCc3cccs3)CC1)CC(C)O2 (centres undefined),–,inactive: -5.41%
COc1cc(C(=O)NNC(=O)c2ccccc2OCc2c(C)noc2C)cc(OC)c1OC,–,inactive: -11.1%
CCOc1ccc(OCC)c(Nc2cc(C)nc3nc(C)nn23)c1,"inconclusive: 6.31 µM [inhibitor, single point]",–
C=C(C)Cn1c(SCC(=O)Nc2cccc(C)c2)nc2sc3c(c2c1=O)CCCC3,"inconclusive: 6.31 µM [inhibitor, full curve, poor fit]",–
O=C(CCS(=O)(=O)c1nc(-c2ccc3c(c2)OCO3)cc(C(F)(F)F)n1)Nc1ccc(F)cc1F,"inconclusive: 0.708 µM [inhibitor, full curve, poor fit]",–

# As a working copy, part of the list above:
Compound,Potency,"activity change, negative = inhibition"
Cc1cc2nc(N(Cc3cccnc3)C(=O)c3ccc(Cl)s3)sc2cc1C,"inconclusive: 0.112 µM [inhibitor, full curve, poor fit]",–
Cc1cc(C)cc(NC(=S)NCCSc2ccc(Cl)cc2)c1,–,inactive: -15.5%
COc1ccc(CC(=O)Nc2cc(S(=O)(=O)N3CCOCC3)ccc2N2CCOCC2)cc1,"inconclusive: 0.282 µM [inhibitor, full curve, poor fit]",–
